From patent US20030152571A1
No constants are given. Whether binding was seen depends on the method and setting. Binding can be weak; no strength is given.

Experiments:
[1] = biological target: human vitronectin receptor αvβ3 purified from human placenta (human); test: ORIGEN; αvβ3-biotin preincubated with unlabeled LM609 or D12, then Tag-LM609 (FIG. 6)
[2] = biological target: human vitronectin receptor αvβ3 purified from human placenta (human); test: solid phase ELISA, purified human placenta αvβ3 on plate
[3] = biological target: human vitronectin receptor αvβ3 purified from human placenta (human); test: ORIGEN competition: competing antibody against 1 ug/ml LM609 for 1 ug/ml αvβ3
[4] = biological target: human vitronectin receptor αvβ3 purified from human placenta (human); test: ORIGEN competition (FIG. 7)
[5] = biological target: human vitronectin receptor αvβ3 purified from human placenta (human); test: ORIGEN binding to αvβ3 (FIG. 2)
[6] = biological target: human vitronectin receptor αvβ3 purified from human placenta (human); test: ORIGEN electrochemiluminescence binding assay on αvβ3
[7] = biological target: human vitronectin receptor αvβ3 purified from human placenta (human); test: ELISA and BIAcore, COS cell supernatants

Measured: binding

B1: murine monoclonal antibody D12 (antibody, V domains shown)
VH: EIQLQQSGPEVVKPGASVKVSCKASGYAFTSYNMYWVKQSHGKSLEWIGYIDPYNGDTFYNQKFKGKATLTVDKSSSTAYMHLNSLTSEDSAVFYCARQNYGSFAYWGQGTLVTVSA
VL: DIVLTQSPATLSVTPGDSVSLSCRASQSISNHLHWYQQRSHESPRLLIKYASQSISGIPSRFRGSGSGTDFTLNINILETEDFGMYFCQQSNSWPFTFGSGTNLEIKR
not listed: [7]
binds: all other assays above

B2: humanized D12 antibody HZ-D12 (IgG1) (antibody, V domains shown)
VH: QVQLVQSGAEVKKPGASVKVSCKASGYAFTSYNMYWVRQAPGQGLEWIGYIDPYNGDTFYNQKFKGKATLTVDKSTSTAYMELSSLRSEDTAVYYCARQNYGSFAYWGQGTLVTVSS
VL: DIVLTQSPGTLSLSPGERATLSCRASQSISNHLHWYQQKPGQAPRLLIKYASQSISGIPSRFSGSGSGTDFTLTISRLEPEDFAVYYCQQSNSWPFTFGQGTKVEIK
binds: [7]
